Source: PMC4481407
No constants are given. Whether binding was seen depends on the method and setting. A result given as binding can be weak or reduced; the word gives no strength. Tags and fused reporters may be left off the sequences shown.

Columns and labels:
Experiment in all cases: pull-down; GST-HOAP polypeptides of different length on sepharose beads with bacterially expressed 6His-Peo; 20 mM Hepes KOH, 20 mM NaF, 0.8% NP40, 1 h at 4°C; His-Peo detected with anti-Peo antibody; both purified
[1] = biological target: GST-HOAP ∆1–3 (Drosophila melanogaster)
[2] = biological target: GST-HOAP ∆3 (Drosophila melanogaster)
[3] = biological target: GST-HOAP ∆2, 3 (Drosophila melanogaster)

Measured: binding

B1: 6His-Peo (protein, UniProt Q7K4V4 1-244)
chain: MTLDLDAHKKDDKLLITTIQQEYKILAEYKMIESEKLSGIYVIPSYANSLQWFGVFFGRQGLYAESVFRFTILLPDRFPDDKSLPSIIFQQDVIHPHVCPYTHSLDVSHAFPEWRCGEDHLWQLLKYLQVIFSDPLDSIRGIEVDKLKNSEAAELLMNNKEEYVARVQENIKESKEHIFDTPPTEDPHYIVFEKFQQDVHGPVLERIKAGRSKLTEPSAQQANGGHATGLSWVKEGEFKPLSIE
binds: all assays above
